PubChem BioAssay AID1053208 – Peter MacCallum Cancer Centre – 2014

Aim: 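Genes whose silencing cuts survival of bone tumour cells only with doxorubicin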 (primary screen)
System: mouse osteosarcoma cells, early-passage culture from an engineered mouse model of fibroblastic bone tumour
Reagents: siRNA pool against mouse genes, 40 nM
Timing: about 120 h (48 h before drug, then 72 h with drug)
Conditions: doxorubicin 100 nM for 72 h, roughly 30-40% inhibitory dose
Measurement: 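Luminescent ATP signal taken as viability with or without 100 nM doxorubicin for 72 h; mean of two wells set against non-targeting siRNA and turned into robust z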
Direction: viability z-score with doxorubicin: higher = more viable cells under doxorubicin; viability z-score without drug: higher = more viable cells with knock-down alone
Hit rule: 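a pool counts as active when its viability z-score with doxorubicin is -2 or below and its z-score without drug lies between -2 and 2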
Here is an unselected part of about 17,000 deposited reagents. Over the whole deposit, 788 (4.7%) were called active. 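Calls rest on z-score classes alone; an extra cut-off of viability at most 70% of control was not applied to them.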 Reagents against one gene are numbered here. Not all columns of the deposit are shown.

The first 2 entries as a preview:
| gene | reagent no. | combined z-score class | viability z-score with doxorubicin | viability z-score without drug | Call |
| --- | --- | --- | --- | --- | --- |
| Plpp5 (phospholipid phosphatase 5) | 1 | no change with or without drug | 1.8 | 0.67 | inactive |
| Psma1 (proteasome subunit alpha 1) | 1 | low cell count with doxorubicin only | -2.25 | -0.51 | active |

Main list, repeating the preview:
| gene | reagent no. | combined z-score class | viability z-score with doxorubicin | viability z-score without drug | Call |
| --- | --- | --- | --- | --- | --- |
| Plpp5 (phospholipid phosphatase 5) | 1 | no change with or without drug | 1.8 | 0.67 | inactive |
| Psma1 (proteasome subunit alpha 1) | 1 | low cell count with doxorubicin only | -2.25 | -0.51 | active |
| Ano6 (anoctamin 6) | 1 | no change with or without drug | 1.35 | 0.84 | inactive |
| Vwc2 (von Willebrand factor C domain containing 2) | 1 | no change with or without drug | 0 | 1.35 | inactive |
| Ufc1 (ubiquitin-fold modifier conjugating enzyme 1) | 1 | no change with or without drug | -1.35 | 0.17 | inactive |
| Crisp1 (cysteine-rich secretory protein 1) | 1 | no change with or without drug | 0.9 | 0 | inactive |
| Tomm70a (translocase of outer mitochondrial membrane 70A) | 1 | no change with or without drug | 0.11 | 0.51 | inactive |
| Srpra (signal recognition particle receptor alpha) | 1 | no change with or without drug | 0.9 | -1.85 | inactive |
| Cops7b (COP9 signalosome subunit 7B) | 1 | high cell count without drug only | 0.9 | 2.02 | inactive |
| Me3 (malic enzyme 3, NADP(+)-dependent, mitochondrial) | 1 | no change with or without drug | -0.22 | -0.51 | inactive |
| Kazald1 (Kazal-type serine peptidase inhibitor domain 1) | 1 | no change with or without drug | -0.9 | 0 | inactive |
| Gpatch3 (G patch domain containing 3) | 1 | no change with or without drug | -1.24 | 1.18 | inactive |
| Esam (endothelial cell-specific adhesion molecule) | 1 | no change with or without drug | -1.01 | 0.34 | inactive |
| Med30 (mediator complex subunit 30) | 1 | no change with or without drug | 0 | 0.51 | inactive |
| Timp3 (tissue inhibitor of metalloproteinase 3) | 1 | no change with or without drug | 1.01 | 0.84 | inactive |
| Fbxo7 (F-box protein 7) | 1 | no change with or without drug | -0.22 | 0.84 | inactive |
| Cacng6 (calcium channel, voltage-dependent, gamma subunit 6) | 1 | no change with or without drug | 0.22 | 1.01 | inactive |
| Tcf25 (transcription factor 25 (basic helix-loop-helix)) | 1 | no change with or without drug | -0.22 | -0.51 | inactive |
| Ear2 (eosinophil-associated, ribonuclease A family, member 2) | 1 | no change with or without drug | 0.22 | 1.35 | inactive |
| Thsd7b (thrombospondin, type I, domain containing 7B) | 1 | no change with or without drug | -0.67 | -0.84 | inactive |
| Stxbp4 (syntaxin binding protein 4) | 1 | no change with or without drug | -0.67 | -0.17 | inactive |
| Stxbp4 (syntaxin binding protein 4) | 2 | no change with or without drug | -0.79 | -0.17 | inactive |
| Rfng (RFNG O-fucosylpeptide 3-beta-N-acetylglucosaminyltransferase) | 1 | no change with or without drug | 1.46 | -0.51 | inactive |
| Ldhal6b (lactate dehydrogenase A-like 6B) | 1 | no change with or without drug | 0.45 | 0.51 | inactive |
| Gna12 (guanine nucleotide binding protein, alpha 12) | 1 | no change with or without drug | -1.91 | -0.67 | inactive |
| Hira (histone cell cycle regulator) | 1 | no change with or without drug | 0.79 | 1.01 | inactive |
| Prop1 (paired like homeodomain factor 1) | 1 | no change with or without drug | -0.11 | -0.34 | inactive |
| Aqp5 (aquaporin 5) | 1 | low cell count with doxorubicin only | -2.59 | -0.84 | active |
| Ago2 (argonaute RISC catalytic subunit 2) | 1 | no change with or without drug | -0.56 | 1.18 | inactive |
| Eda (ectodysplasin-A) | 1 | no change with or without drug | 1.12 | -0.17 | inactive |
| Cd247 (CD247 antigen) | 1 | no change with or without drug | 1.46 | -1.18 | inactive |
| Grin2d (glutamate receptor, ionotropic, NMDA2D (epsilon 4)) | 1 | no change with or without drug | -0.67 | -0.51 | inactive |
| Herc1 | 1 | no change with or without drug | -0.11 | 0.84 | inactive |
| Epor (erythropoietin receptor) | 1 | no change with or without drug | 0.22 | 0.34 | inactive |
| Tsen15 (tRNA splicing endonuclease subunit 15) | 1 | no change with or without drug | -0.45 | -0.17 | inactive |
| D030056L22Rik (RIKEN cDNA D030056L22 gene) | 1 | no change with or without drug | 0 | 1.01 | inactive |
| Sash3 (SAM and SH3 domain containing 3) | 1 | low cell count with doxorubicin only | -3.37 | -1.35 | active |
| Vmn1r36 (vomeronasal 1 receptor 36) | 1 | no change with or without drug | -0.22 | 1.18 | inactive |
| Mat1a (methionine adenosyltransferase 1A) | 1 | no change with or without drug | 0.22 | -0.84 | inactive |
| Chga (chromogranin A) | 1 | no change with or without drug | -1.12 | -0.84 | inactive |
| Clybl (citrate lyase beta like) | 1 | no change with or without drug | -0.56 | -0.51 | inactive |
| 4833439L19Rik (RIKEN cDNA 4833439L19 gene) | 1 | no change with or without drug | 0.22 | 0.51 | inactive |
| Riok3 (RIO kinase 3) | 1 | no change with or without drug | 0.22 | 0.84 | inactive |
| Ptprj (protein tyrosine phosphatase receptor type J) | 1 | no change with or without drug | -0.22 | -0.51 | inactive |
| Prol1 (proline rich, lacrimal 1) | 1 | no change with or without drug | -1.57 | -0.51 | inactive |
| Fah (fumarylacetoacetate hydrolase) | 1 | no change with or without drug | 1.35 | -0.51 | inactive |
| Bhmt2 (betaine-homocysteine methyltransferase 2) | 1 | no change with or without drug | 0 | -0.17 | inactive |
| Cyp11a1 (cytochrome P450, family 11, subfamily a, polypeptide 1) | 1 | no change with or without drug | 0.11 | -0.84 | inactive |
| Cer1 (cerberus 1, DAN family BMP antagonist) | 1 | no change with or without drug | -1.69 | 0.17 | inactive |
| Zfp84 (zinc finger protein 84) | 1 | no change with or without drug | 0.22 | 1.69 | inactive |
| Thnsl1 (threonine synthase-like 1 (bacterial)) | 1 | no change with or without drug | 0 | 0.17 | inactive |
| Morf4l2 (mortality factor 4 like 2) | 1 | low cell count without drug only | -1.35 | -2.02 | inactive |
| Ss18 (SS18, subunit of BAF chromatin remodeling complex) | 1 | no change with or without drug | 0.11 | -0.17 | inactive |
| Sdcbp2 (syndecan binding protein (syntenin) 2) | 1 | high cell count without drug only | 1.12 | 3.04 | inactive |
| Vpreb3 (V-set pre-B cell surrogate light chain 3) | 1 | no change with or without drug | 1.01 | -0.51 | inactive |
| Zc3h12d (zinc finger CCCH type containing 12D) | 1 | no change with or without drug | 0.9 | 0.84 | inactive |
| 4932425I24RIK | 1 | no change with or without drug | -0.45 | 0.34 | inactive |
| Khk (ketohexokinase) | 1 | no change with or without drug | 1.46 | 0.17 | inactive |
| Vegfd (vascular endothelial growth factor D) | 1 | no change with or without drug | -0.22 | 0.17 | inactive |
| Fyb1 (FYN binding protein 1) | 1 | no change with or without drug | -0.9 | -0.51 | inactive |
| Abca1 (ATP-binding cassette, sub-family A member 1) | 1 | no change with or without drug | -0.11 | 1.18 | inactive |
| Manba (mannosidase, beta A, lysosomal) | 1 | no change with or without drug | 0.45 | -0.84 | inactive |
| Pde4b (phosphodiesterase 4B, cAMP specific) | 1 | no change with or without drug | -0.34 | -1.35 | inactive |
